Experimental findings from patent publication US20200354404A1 (priority 2019, published 2020) are described below.

The data set can be described thus: general procedure: solution-phase peptide synthesis; TBTU/HOBt. The following applies: late stage modification step.

Aza-Endomorphin-2 (K763) came in with a step yield of 98% yield.
For Aza-FSSE (K883), the step yield result is on record as “two steps, 75% yield”.
